Reference: PubChem BioAssay AID1224830 (NIAID, 2016)

- Assay: 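Genes whose knock-down alters the TNF-alpha reporter response to LPS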 (primary screen)
- Cells: human THP-1 monocytic leukaemia cells, TNF dual-luciferase reporter clone, PMA-differentiated to macrophage-like cells
- Knock-down reagent: siRNA pool against human genes, 50 nM
- Time to read-out: LPS for 4 h, given about 3 days after siRNA transfection
- Challenge: bacterial LPS (TLR4 ligand), 10 ng/ml
- Measured: 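TNF firefly reporter luminescence divided by renilla, normalised to the plate median, then turned into a robust z-score for each replicate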
- Reading the numbers: TNF reporter robust z-score: higher = stronger TNF reporter response to LPS
- Active means: 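Each well counts as active if its z-score is over 2.8 or under -1.5; controls are left without a call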
The deposit covers about 18,000 reagents; this is a random part of them. Of all reagents, about 2,900 (16%) are marked active. 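Calls are made per well; low scores hint the gene aids the LPS response, high scores that it dampens it.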 Unmarked entries are inactive. Repeated entries: four replicate wells of each siRNA pool.

{"gene": "TP53BP2", "TNF reporter robust z-score": 2.11}
{"gene": "TP53BP2", "TNF reporter robust z-score": 1.8}
{"gene": "TP53BP2", "TNF reporter robust z-score": -0.18}
{"gene": "TP53BP2", "TNF reporter robust z-score": 0}
{"gene": "CFC1B", "TNF reporter robust z-score": -1.5}
{"gene": "CFC1B", "TNF reporter robust z-score": -1.2}
{"gene": "CFC1B", "TNF reporter robust z-score": -1.04}
{"gene": "CFC1B", "TNF reporter robust z-score": -1.37}
{"gene": "HNRNPDL", "TNF reporter robust z-score": -0.11}
{"gene": "HNRNPDL", "TNF reporter robust z-score": 0.63}
{"gene": "HNRNPDL", "TNF reporter robust z-score": -0.24}
{"gene": "HNRNPDL", "TNF reporter robust z-score": -0.7}
{"gene": "DCAF4L1", "TNF reporter robust z-score": -0.4}
{"gene": "DCAF4L1", "TNF reporter robust z-score": 0.31}
{"gene": "DCAF4L1", "TNF reporter robust z-score": -0.86}
{"gene": "DCAF4L1", "TNF reporter robust z-score": -0.38}
{"gene": "AKR1B10", "TNF reporter robust z-score": 0.25}
{"gene": "AKR1B10", "TNF reporter robust z-score": 0.72}
{"gene": "AKR1B10", "TNF reporter robust z-score": -0.57}
{"gene": "AKR1B10", "TNF reporter robust z-score": 0.61}
{"gene": "CCDC66", "TNF reporter robust z-score": 2.63}
{"gene": "CCDC66", "TNF reporter robust z-score": 2.23}
{"gene": "CCDC66", "TNF reporter robust z-score": 0.19}
{"gene": "CCDC66", "TNF reporter robust z-score": "3.16 (active)"}
{"gene": "NT5C", "TNF reporter robust z-score": -1.21}
{"gene": "NT5C", "TNF reporter robust z-score": -0.86}
{"gene": "NT5C", "TNF reporter robust z-score": 0.19}
{"gene": "NT5C", "TNF reporter robust z-score": -0.75}
{"gene": "CSNK2A2", "TNF reporter robust z-score": "-2.11 (active)"}
{"gene": "CSNK2A2", "TNF reporter robust z-score": "-1.93 (active)"}
{"gene": "CSNK2A2", "TNF reporter robust z-score": "-2 (active)"}
{"gene": "CSNK2A2", "TNF reporter robust z-score": -1.14}

Part of the list above, reformatted:
gene | TNF reporter robust z-score
CCDC66 | 2.23
CCDC66 | 0.19
CCDC66 | 3.16 (active)
